PubChem BioAssay AID1259308 – NCATS | 2017

- Test: 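Genes whose loss raises luciferase production in HEK293 cells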 (primary screen)
- Cell system: human HEK293 embryonic kidney cells stably expressing firefly luciferase (HEK-CMV-Luc2-Hygro)
- Reagent: single siRNA against human genes, 0.8 pmol siRNA per well
- Timing: 72 h
- Read-out: 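Reporter luminescence and viable-cell signal on separate replicate plates, given as percent of non-targeting control and median/MAD z-scores, plus per-cell luciferase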
- Reading the numbers: total luciferase, z-score and total luciferase, % of control: higher = more reporter protein produced
- Hit rule: 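An siRNA counts as active if its total luciferase robust z-score exceeds 3; genes with two or more such siRNAs out of three were retested with fresh siRNAs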
- Meaning of the calls: active = raised luciferase; inactive = no rise
This is a random part of about 59,000 deposited reagents. Of all reagents, about 1,510 (2.6%) are marked active. 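Calls use total luciferase alone and ignore viability, so some active siRNAs may act by altering cell number.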 Reagents against one gene are numbered here. Further read-outs or replicates are left out here. Reagent sequences are not shown.

Knock-down of THRA (GeneID 7067) #1 came out at: total luciferase, z-score 1.71; total luciferase, % of control 116; inactive. THRA (GeneID 7067) #2 showed total luciferase, z-score 1.12; total luciferase, % of control 104; inactive. After knock-down of THRA (GeneID 7067) #3 the results were total luciferase, z-score 1.33; total luciferase, % of control 108; inactive. OR4C15 (GeneID 81309) #1 showed total luciferase, z-score -1.23; total luciferase, % of control 57.4; inactive. After knock-down of OR4C15 (GeneID 81309) #2 the results were total luciferase, z-score -0.0767; total luciferase, % of control 80.4; inactive. Silencing of OR4C15 (GeneID 81309) #3 came out at: total luciferase, z-score 1.93; total luciferase, % of control 120; inactive.

HERC2 (GeneID 8924) #1 showed total luciferase, z-score 1.86; total luciferase, % of control 119; inactive. With knock-down of HERC2 (GeneID 8924) #2, the record shows total luciferase, z-score -0.529; total luciferase, % of control 71.4; inactive. After knock-down of HERC2 (GeneID 8924) #3, the record shows total luciferase, z-score -0.143; total luciferase, % of control 79; inactive. B3GNT8 (GeneID 374907) #1 gave total luciferase, z-score -0.0505; total luciferase, % of control 80.9; inactive. Against B3GNT8 (GeneID 374907) #2, the entry reads total luciferase, z-score -1.86; total luciferase, % of control 45; inactive. After knock-down of B3GNT8 (GeneID 374907) #3 the results were total luciferase, z-score 3.71; total luciferase, % of control 156; active.

Ordered by “total luciferase, z-score” (lowest first): some entries from above
OR4C15 (GeneID 81309) #1 | total luciferase, z-score: -1.23; total luciferase, % of control: 57.4; Outcome: inactive
OR4C15 (GeneID 81309) #2 | total luciferase, z-score: -0.0767; total luciferase, % of control: 80.4; Outcome: inactive

Next results follow.
For RMDN2 (GeneID 151393) #1, the entry reads total luciferase, z-score -1.72; total luciferase, % of control 47.7; inactive. Against RMDN2 (GeneID 151393) #2, the values are total luciferase, z-score -0.522; total luciferase, % of control 71.5; inactive. Against RMDN2 (GeneID 151393) #3, the values are total luciferase, z-score -0.349; total luciferase, % of control 74.9; inactive. After knock-down of SLC5A5 (GeneID 6528) #1, the screen gave total luciferase, z-score 0.785; total luciferase, % of control 97.5; inactive. After knock-down of SLC5A5 (GeneID 6528) #2, the record shows total luciferase, z-score 0.537; total luciferase, % of control 92.6; inactive. Against SLC5A5 (GeneID 6528) #3, the entry reads total luciferase, z-score -1.15; total luciferase, % of control 59.1; inactive.

After knock-down of WASF1 (GeneID 8936) #1, the screen gave total luciferase, z-score -2.48; total luciferase, % of control 32.5; inactive. After knock-down of WASF1 (GeneID 8936) #2, the screen gave total luciferase, z-score -0.317; total luciferase, % of control 75.6; inactive. With knock-down of WASF1 (GeneID 8936) #3 the results were total luciferase, z-score -0.899; total luciferase, % of control 64; inactive.
